Source: the supplement of paper PMC4604168 (melanoma cell lines)
The list shows a part of the results. Repeats are few or missing, and single values can be far off.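 The apoptosis fraction was the count of cleaved-PARP antibody-stained nuclei relative to all DNA-stained nuclei, imaged in 1,536-well plates. Screening doses were set so most cells survived, and baseline and induced cleaved-PARP levels vary greatly across cell lines.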

system: IST-MEL1; test: cleaved PARP positive nuclei fraction relative to DMSO control; melanoma cells; higher = more apoptosis; settings: library dose: low library concentration; 72 h

Row | SMILES | cleaved PARP positive nuclei fraction [%]
1 | Cc1cc(Nc2cc(N3CCN(C)CC3)nc(Sc3ccc(NC(=O)C4CC4)cc3)n2)n[nH]1 [Tozasertib] + Cc1ccc(NC(=O)c2cccc(N(C)C)c2)cc1NC(=O)c1ccc(O)cc1 [ZM336372] (first compound 0.006 µM, partner dose 2 µM) | 204
2 | CC[C@]1(O)C[C@H]2CN(CCc3c([nH]c4ccccc34)[C@@](C(=O)OC)(c3cc4c(cc3OC)N(C=O)[C@H]3[C@@](O)(C(=O)OC)[C@H](OC(C)=O)[C@]5(CC)C=CCN6CC[C@]43[C@@H]65)C2)C1 [vincristine] + CC1(C)NC(=O)N(c2ccc([N+](=O)[O-])c(C(F)(F)F)c2)C1=O [nilutamide] (first compound 0.0001 µM, partner dose 1 µM) | 100
3 | N#CC[C@H](C1CCCC1)n1cc(-c2ncnc3[nH]ccc23)cn1 [ruxolitinib] + CO[C@@H]1[C@H](N(C)C(=O)c2ccccc2)C[C@H]2O[C@]1(C)n1c3ccccc3c3c4c(c5c6ccccc6n2c5c31)C(=O)NC4 [Midostaurin] (first compound 1 µM, partner dose 0.08 µM) | 279
4 | CCCCCCCCCCCCCCCCCCOP(=O)([O-])OC1CC[N+](C)(C)CC1 [Perifosine] + COc1cc2c(Oc3ccc4[nH]c(C)cc4c3F)ncnc2cc1OCCCN1CCCC1 [cediranib] (first compound 0.4 µM, partner dose 0.4 µM) | 31.8
5 | N#CC[C@H](C1CCCC1)n1cc(-c2ncnc3[nH]ccc23)cn1 [ruxolitinib] + COc1cc2c(Oc3ccc4[nH]c(C)cc4c3F)ncnc2cc1OCCCN1CCCC1 [cediranib] (first compound 1 µM, partner dose 0.4 µM) | 76.9
6 | O=C(/C=C/c1cccnc1)NCCCCC1CCN(C(=O)c2ccccc2)CC1 + O=C(O)c1ccc(-c2c[nH]c3ncc(-c4ccccc4)cc23)cc1C1CCCC1 [GSK650394] (first compound 0.01 µM, partner dose 0.16 µM) | 254
7 | Cc1cc(Nc2cc(N3CCN(C)CC3)nc(Sc3ccc(NC(=O)C4CC4)cc3)n2)n[nH]1 [Tozasertib] + NCC(=O)Nc1ccc(-n2nc(C(F)(F)F)cc2-c2ccc3c(ccc4ccccc43)c2)cc1 [OSU03012] (first compound 0.006 µM, partner dose 1 µM) | 135
8 | Cc1cn(-c2cc(NC(=O)c3ccc(C)c(Nc4nccc(-c5cccnc5)n4)c3)cc(C(F)(F)F)c2)cn1 [nilotinib] + CO[C@@H]1[C@H](N(C)C(=O)c2ccccc2)C[C@H]2O[C@]1(C)n1c3ccccc3c3c4c(c5c6ccccc6n2c5c31)C(=O)NC4 [Midostaurin] (first compound 0.2 µM, partner dose 0.08 µM) | 219
9 | Cc1ccc(Nc2nccc(N(C)c3ccc4c(C)n(C)nc4c3)n2)cc1S(N)(=O)=O [Pazopanib] + CN(NC(=O)CC(=O)NN(C)C(=S)c1ccccc1)C(=S)c1ccccc1 [STA4783] (first compound 0.4 µM, partner dose 0.006 µM) | 93.6
10 | COc1cc([C@@H]2c3cc4c(cc3[C@@H](O[C@@H]3O[C@@H]5CO[C@@H](C)O[C@H]5[C@H](O)[C@H]3O)[C@H]3COC(=O)[C@H]23)OCO4)cc(OC)c1O [etoposide] + Cc1ccc(NC(=O)c2cccc(N(C)C)c2)cc1NC(=O)c1ccc(O)cc1 [ZM336372] (first compound 0.02 µM, partner dose 2 µM) | 205
11 | O=C(/C=C/c1cccnc1)NCCCCC1CCN(C(=O)c2ccccc2)CC1 + CN(NC(=O)CC(=O)NN(C)C(=S)c1ccccc1)C(=S)c1ccccc1 [STA4783] (first compound 0.01 µM, partner dose 0.006 µM) | 428

Entries 10 to 11 of the list above:
Row | SMILES | cleaved PARP positive nuclei fraction [%]
10 | COc1cc([C@@H]2c3cc4c(cc3[C@@H](O[C@@H]3O[C@@H]5CO[C@@H](C)O[C@H]5[C@H](O)[C@H]3O)[C@H]3COC(=O)[C@H]23)OCO4)cc(OC)c1O [etoposide] + Cc1ccc(NC(=O)c2cccc(N(C)C)c2)cc1NC(=O)c1ccc(O)cc1 [ZM336372] (first compound 0.02 µM, partner dose 2 µM) | 205
11 | O=C(/C=C/c1cccnc1)NCCCCC1CCN(C(=O)c2ccccc2)CC1 + CN(NC(=O)CC(=O)NN(C)C(=S)c1ccccc1)C(=S)c1ccccc1 [STA4783] (first compound 0.01 µM, partner dose 0.006 µM) | 428
